For four molecules, binding results are on record in doi:10.1101/345959.

The target of assay [1] is T1, Mic19 (1-35aa)-Flag (human) (UniProt Q9NX63).
T1 sequence: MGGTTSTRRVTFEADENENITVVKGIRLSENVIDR
The experiment in a line: co-IP.

Another assay concerns the target T2, Mic19-Flag (human) (UniProt Q9NX63).
T2 sequence: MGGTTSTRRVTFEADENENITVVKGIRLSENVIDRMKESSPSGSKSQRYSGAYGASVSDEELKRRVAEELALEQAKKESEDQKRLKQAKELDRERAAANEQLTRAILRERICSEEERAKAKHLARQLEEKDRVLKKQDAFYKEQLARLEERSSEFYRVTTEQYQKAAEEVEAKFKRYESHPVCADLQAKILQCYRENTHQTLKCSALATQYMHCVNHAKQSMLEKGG
The experiment in a line: co-IP.

The target of a further assay is T3, Mic25-Flag (human) (UniProt Q9BRQ6).
T3 sequence: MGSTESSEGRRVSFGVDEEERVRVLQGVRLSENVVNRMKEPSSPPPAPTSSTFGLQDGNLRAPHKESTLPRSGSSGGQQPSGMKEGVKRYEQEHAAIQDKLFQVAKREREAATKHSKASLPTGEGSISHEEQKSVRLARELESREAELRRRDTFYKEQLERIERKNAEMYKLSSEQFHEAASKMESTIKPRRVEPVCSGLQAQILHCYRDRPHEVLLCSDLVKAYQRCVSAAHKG
As to the kind of experiment: co-IP.

The target in the next assay is T4, GST-Mic25 (human) (UniProt Q9BRQ6).
T4 sequence: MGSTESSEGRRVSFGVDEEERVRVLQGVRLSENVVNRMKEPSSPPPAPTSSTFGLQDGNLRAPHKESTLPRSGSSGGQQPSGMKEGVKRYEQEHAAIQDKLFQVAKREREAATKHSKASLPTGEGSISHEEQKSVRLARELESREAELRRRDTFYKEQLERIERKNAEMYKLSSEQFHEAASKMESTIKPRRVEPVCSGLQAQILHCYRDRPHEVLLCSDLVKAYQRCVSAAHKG
As to the kind of experiment: pull-down.

Assay [2] deals with T5, Sam50, GST or His fused (Figure 2B-C) (UniProt Q9Y512).
T5 sequence: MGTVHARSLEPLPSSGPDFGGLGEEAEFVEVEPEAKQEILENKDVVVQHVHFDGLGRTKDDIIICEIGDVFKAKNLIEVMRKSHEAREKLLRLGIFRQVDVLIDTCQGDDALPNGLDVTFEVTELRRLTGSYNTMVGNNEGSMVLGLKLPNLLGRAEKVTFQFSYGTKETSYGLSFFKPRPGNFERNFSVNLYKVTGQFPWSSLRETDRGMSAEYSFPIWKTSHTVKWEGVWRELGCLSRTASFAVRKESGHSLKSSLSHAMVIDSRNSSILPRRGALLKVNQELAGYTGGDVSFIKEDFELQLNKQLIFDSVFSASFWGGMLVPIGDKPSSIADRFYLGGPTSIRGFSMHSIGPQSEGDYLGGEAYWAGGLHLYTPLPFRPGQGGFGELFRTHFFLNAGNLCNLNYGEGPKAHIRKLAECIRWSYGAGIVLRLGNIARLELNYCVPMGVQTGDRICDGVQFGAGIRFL
As to the kind of experiment: pull-down.

For assay [3], the target named is T6, Mic60 (371-590AA), GST or His fused (Figure 2D) (UniProt Q16891).
T6 sequence: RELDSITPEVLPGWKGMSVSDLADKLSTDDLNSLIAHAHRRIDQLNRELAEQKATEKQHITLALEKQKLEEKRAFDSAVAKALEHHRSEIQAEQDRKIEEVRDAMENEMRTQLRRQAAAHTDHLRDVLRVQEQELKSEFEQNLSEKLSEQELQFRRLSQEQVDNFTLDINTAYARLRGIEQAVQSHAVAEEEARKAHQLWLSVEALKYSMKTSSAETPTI
As to the kind of experiment: pull-down.

No constants are given. Whether binding was seen depends on the method and setting. Binding seen in cells or lysates may run through a third protein. Some results given as binding are weak or reduced against the parent protein; the word gives no strength. Where a sequence is shown, tags or fusion partners need not be part of it.

B1: Sam50 (endogenous) (protein, UniProt Q9Y512 1-469)
chain: MGTVHARSLEPLPSSGPDFGGLGEEAEFVEVEPEAKQEILENKDVVVQHVHFDGLGRTKDDIIICEIGDVFKAKNLIEVMRKSHEAREKLLRLGIFRQVDVLIDTCQGDDALPNGLDVTFEVTELRRLTGSYNTMVGNNEGSMVLGLKLPNLLGRAEKVTFQFSYGTKETSYGLSFFKPRPGNFERNFSVNLYKVTGQFPWSSLRETDRGMSAEYSFPIWKTSHTVKWEGVWRELGCLSRTASFAVRKESGHSLKSSLSHAMVIDSRNSSILPRRGALLKVNQELAGYTGGDVSFIKEDFELQLNKQLIFDSVFSASFWGGMLVPIGDKPSSIADRFYLGGPTSIRGFSMHSIGPQSEGDYLGGEAYWAGGLHLYTPLPFRPGQGGFGELFRTHFFLNAGNLCNLNYGEGPKAHIRKLAECIRWSYGAGIVLRLGNIARLELNYCVPMGVQTGDRICDGVQFGAGIRFL
For the molecule B1, the binding result (in assay [1]; in the assay with Mic19-Flag (human); with Mic25-Flag (human)) was “binds” each time.

B2: Sam50 (Figure S3C) (protein, UniProt Q9Y512 1-469)
chain: MGTVHARSLEPLPSSGPDFGGLGEEAEFVEVEPEAKQEILENKDVVVQHVHFDGLGRTKDDIIICEIGDVFKAKNLIEVMRKSHEAREKLLRLGIFRQVDVLIDTCQGDDALPNGLDVTFEVTELRRLTGSYNTMVGNNEGSMVLGLKLPNLLGRAEKVTFQFSYGTKETSYGLSFFKPRPGNFERNFSVNLYKVTGQFPWSSLRETDRGMSAEYSFPIWKTSHTVKWEGVWRELGCLSRTASFAVRKESGHSLKSSLSHAMVIDSRNSSILPRRGALLKVNQELAGYTGGDVSFIKEDFELQLNKQLIFDSVFSASFWGGMLVPIGDKPSSIADRFYLGGPTSIRGFSMHSIGPQSEGDYLGGEAYWAGGLHLYTPLPFRPGQGGFGELFRTHFFLNAGNLCNLNYGEGPKAHIRKLAECIRWSYGAGIVLRLGNIARLELNYCVPMGVQTGDRICDGVQFGAGIRFL
B2: the binding entry in the assay with GST-Mic25 (human) is given as “binds”.

B3: His-Mic60(371-590aa) (domain or fragment, UniProt Q16891 371-590)
chain: RELDSITPEVLPGWKGMSVSDLADKLSTDDLNSLIAHAHRRIDQLNRELAEQKATEKQHITLALEKQKLEEKRAFDSAVAKALEHHRSEIQAEQDRKIEEVRDAMENEMRTQLRRQAAAHTDHLRDVLRVQEQELKSEFEQNLSEKLSEQELQFRRLSQEQVDNFTLDINTAYARLRGIEQAVQSHAVAEEEARKAHQLWLSVEALKYSMKTSSAETPTI
Regarding B3, in the assay with GST-Mic25 (human), the binding result is on record as “binds”.

Regarding MGGTTSTRRVTFEADENENITVVKGIRLSENVIDR (domain or fragment, UniProt Q9NX63 1-35) [Mic19 (1-35AA), GST or His fused], the values for the binding entry in assay [2] and in assay [3] were “binds” and “no binding”, respectively.
